# Reference: publication doi:10.1101/595835
# Protein sequences, listed by entry. Tags and fused reporters are not part of them. Lines headed by an entry give the natural chain unless they say otherwise; changes in a name come on top. Chains listed by the source or under a name are the forms on record and can include a tag or linker.
# biotinylated AviTag-haBiP^V461F(19-654), AMPylated (G3I8R9, form named): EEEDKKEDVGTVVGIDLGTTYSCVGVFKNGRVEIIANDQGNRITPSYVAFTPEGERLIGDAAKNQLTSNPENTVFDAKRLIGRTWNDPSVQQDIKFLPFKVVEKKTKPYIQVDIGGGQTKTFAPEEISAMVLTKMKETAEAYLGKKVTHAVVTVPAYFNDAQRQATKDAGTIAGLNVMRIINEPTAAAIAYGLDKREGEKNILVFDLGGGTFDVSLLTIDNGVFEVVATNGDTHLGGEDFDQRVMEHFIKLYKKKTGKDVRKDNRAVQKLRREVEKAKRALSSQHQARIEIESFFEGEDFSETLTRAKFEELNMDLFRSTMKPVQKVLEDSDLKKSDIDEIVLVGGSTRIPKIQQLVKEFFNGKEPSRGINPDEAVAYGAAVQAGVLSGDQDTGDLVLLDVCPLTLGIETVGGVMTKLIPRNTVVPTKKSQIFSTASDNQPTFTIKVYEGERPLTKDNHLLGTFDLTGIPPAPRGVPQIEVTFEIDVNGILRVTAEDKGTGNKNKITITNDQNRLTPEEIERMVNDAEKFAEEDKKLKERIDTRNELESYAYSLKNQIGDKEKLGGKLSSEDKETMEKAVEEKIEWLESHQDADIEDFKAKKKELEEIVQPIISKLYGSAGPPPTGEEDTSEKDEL
# Residue numbers refer to the chain shown, from its start. Names and notes keep the numbering of the source. Results are given in words; binding and its absence hold for the method and conditions named. For some of these results: In cells and extracts the contact can be indirect. Some results given as binding are weak or reduced against the parent protein; the word gives no strength. For some of these results: Where a sequence is shown, tags or fusion partners need not be part of it.
# B1: wild-type FICD, orthogonally tagged copies co-expressed in CHO-K1 cells (protein, UniProt Q9BVA6 1-458)
# chain: MMLIPMASVMAVTEPKWVSVWSRFLWVTLLSMVLGSLLALLLPLGAVEEQCLAVLKGLYLLRSKPDRAQHAATKCTSPSTELSITSRGATLLVAKTKASPAGKLEARAALNQALEMKRQGKREKAQKLFMHALKMDPDFVDALTEFGIFSEEDKDIIQADYLYTRALTISPYHEKALVNRDRTLPLVEEIDQRYFSIIDSKVKKVMSIPKGNSALRRVMEETYYHHIYHTVAIEGNTLTLSEIRHILETRYAVPGKSLEEQNEVIGMHAAMKYINTTLVSRIGSVTISDVLEIHRRVLGYVDPVEAGRFRTTQVLVGHHIPPHPQDVEKQMQEFVQWLNSEEAMNLHPVEFAALAHYKLVYIHPFIDGNGRTSRLLMNLILMQAGYPPITIRKEQRSDYYHVLEAANEGDVRPFIRFIAKCTETTLDTLLFATTEYSVALPEAQPNHSGFKETLPVKP
# modifications: biotin on the AviTag (copy with His6-AviTag)
# B2: S-SFICD^A252C-H363A-C421S (trap), covalent disulphide-linked dimer (domain or fragment, UniProt Q9BVA6 104-445)
# chain: LEARAALNQALEMKRQGKREKAQKLFMHALKMDPDFVDALTEFGIFSEEDKDIIQADYLYTRALTISPYHEKALVNRDRTLPLVEEIDQRYFSIIDSKVKKVMSIPKGNSALRRVMEETYYHHIYHTVAIEGNTLTLSEIRHILETRYCVPGKSLEEQNEVIGMHAAMKYINTTLVSRIGSVTISDVLEIHRRVLGYVDPVEAGRFRTTQVLVGHHIPPHPQDVEKQMQEFVQWLNSEEAMNLHPVEFAALAHYKLVYIAPFIDGNGRTSRLLMNLILMQAGYPPITIRKEQRSDYYHVLEAANEGDVRPFIRFIAKSTETTLDTLLFATTEYSVALPEAQP
# modifications: disulphide bond between the two chains through the introduced Cys252
# B3: FICD^L258D, orthogonally tagged copies co-expressed in CHO-K1 cells (protein, UniProt Q9BVA6 1-458)
# chain: B1 chain with L258D
# modifications: biotin on the AviTag (copy with His6-AviTag)
# B4: Oregon Green-labelled FICD^L258D-NC (domain or fragment, UniProt Q9BVA6 104-445)
# chain: CLEARAALNQALEMKRQGKREKAQKLFMHALKMDPDFVDALTEFGIFSEEDKDIIQADYLYTRALTISPYHEKALVNRDRTLPLVEEIDQRYFSIIDSKVKKVMSIPKGNSALRRVMEETYYHHIYHTVAIEGNTLTLSEIRHILETRYAVPGKSDEEQNEVIGMHAAMKYINTTLVSRIGSVTISDVLEIHRRVLGYVDPVEAGRFRTTQVLVGHHIPPHPQDVEKQMQEFVQWLNSEEAMNLHPVEFAALAHYKLVYIHPFIDGNGRTSRLLMNLILMQAGYPPITIRKEQRSDYYHVLEAANEGDVRPFIRFIAKCTETTLDTLLFATTEYSVALPEAQP
# modifications: Oregon Green 488 on the added N-terminal cysteine (labelling efficiency 9.6%)
# What was measured:
# [1] = target: wild-type FICD, orthogonally tagged copies co-expressed in CHO-K1 cells (UniProt Q9BVA6); test: pull-down + co-IP
# [2] = target: biotinylated AviTag-haBiP^V461F(19-654), AMPylated (Chinese hamster) (UniProt G3I8R9); test: BLI
# [3] = target: FICD^L258D, orthogonally tagged copies co-expressed in CHO-K1 cells (UniProt Q9BVA6); test: pull-down + co-IP
# [4] = target: Oregon Green-labelled FICD^L258D-NC (human) (UniProt Q9BVA6); test: AUC
binder,measurement,setting,value
B1,binding,[1],binds
B2,binding,[2],binds
B3,binding,[3],no binding
B4,binding,[4],no binding (tested: 1.6 µM to 31 pM)
